Assay results taken from the supplement of paper PMC10849652.
This is one part of the list.

By UniProt entry, the sequences of proteins in these tests, tags left out. Where a name states a change or a piece, a line headed by the entry shows the natural chain unless it says otherwise.
UniProt Q8N9Z2: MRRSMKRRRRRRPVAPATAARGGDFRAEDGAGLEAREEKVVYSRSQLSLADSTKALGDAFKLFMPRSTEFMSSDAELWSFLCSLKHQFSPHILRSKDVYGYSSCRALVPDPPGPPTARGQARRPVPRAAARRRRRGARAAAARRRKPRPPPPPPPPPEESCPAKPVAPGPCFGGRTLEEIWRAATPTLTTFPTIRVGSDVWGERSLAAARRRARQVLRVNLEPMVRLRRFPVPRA
UniProt Q5T9S5: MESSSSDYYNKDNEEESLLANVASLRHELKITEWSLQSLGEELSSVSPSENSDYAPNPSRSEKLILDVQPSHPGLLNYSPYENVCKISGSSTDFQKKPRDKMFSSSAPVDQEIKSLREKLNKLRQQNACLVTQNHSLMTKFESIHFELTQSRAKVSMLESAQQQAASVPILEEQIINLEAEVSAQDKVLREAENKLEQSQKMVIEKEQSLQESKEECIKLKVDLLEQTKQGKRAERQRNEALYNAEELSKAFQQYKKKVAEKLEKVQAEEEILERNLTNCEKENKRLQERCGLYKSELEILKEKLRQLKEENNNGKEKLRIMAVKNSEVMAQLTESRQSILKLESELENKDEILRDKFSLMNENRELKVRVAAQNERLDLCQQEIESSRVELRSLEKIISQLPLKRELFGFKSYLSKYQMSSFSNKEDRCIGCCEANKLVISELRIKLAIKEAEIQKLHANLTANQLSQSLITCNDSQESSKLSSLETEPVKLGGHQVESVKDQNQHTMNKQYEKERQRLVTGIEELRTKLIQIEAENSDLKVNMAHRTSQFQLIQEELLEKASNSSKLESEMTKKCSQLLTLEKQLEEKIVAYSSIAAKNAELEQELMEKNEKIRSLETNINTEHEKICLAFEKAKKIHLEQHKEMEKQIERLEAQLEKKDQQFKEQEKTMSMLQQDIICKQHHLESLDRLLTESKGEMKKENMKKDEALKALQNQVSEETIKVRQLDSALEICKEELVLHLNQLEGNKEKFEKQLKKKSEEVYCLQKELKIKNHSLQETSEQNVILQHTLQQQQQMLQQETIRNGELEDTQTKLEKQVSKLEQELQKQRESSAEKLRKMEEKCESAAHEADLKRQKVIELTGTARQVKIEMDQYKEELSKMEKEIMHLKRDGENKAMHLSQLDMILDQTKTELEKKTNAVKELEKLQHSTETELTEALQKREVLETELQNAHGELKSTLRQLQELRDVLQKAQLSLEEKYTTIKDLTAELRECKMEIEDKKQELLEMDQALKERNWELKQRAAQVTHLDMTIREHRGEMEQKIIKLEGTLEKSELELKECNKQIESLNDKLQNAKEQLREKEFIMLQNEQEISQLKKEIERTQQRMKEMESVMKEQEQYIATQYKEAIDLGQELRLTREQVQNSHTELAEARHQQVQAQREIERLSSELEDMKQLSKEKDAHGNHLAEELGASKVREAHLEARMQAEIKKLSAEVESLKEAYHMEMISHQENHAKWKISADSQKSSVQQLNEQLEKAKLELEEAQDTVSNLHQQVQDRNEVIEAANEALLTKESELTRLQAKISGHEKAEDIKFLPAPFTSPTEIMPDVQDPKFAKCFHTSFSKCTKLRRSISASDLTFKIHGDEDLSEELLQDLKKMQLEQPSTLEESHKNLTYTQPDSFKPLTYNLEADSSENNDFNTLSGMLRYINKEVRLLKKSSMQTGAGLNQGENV
UniProt Q07108: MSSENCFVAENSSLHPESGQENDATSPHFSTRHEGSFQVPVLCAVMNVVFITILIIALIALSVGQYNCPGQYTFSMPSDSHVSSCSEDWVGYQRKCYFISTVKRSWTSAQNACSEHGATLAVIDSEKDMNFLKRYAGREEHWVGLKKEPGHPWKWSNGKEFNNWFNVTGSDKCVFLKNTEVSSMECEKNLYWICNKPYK
UniProt P40259: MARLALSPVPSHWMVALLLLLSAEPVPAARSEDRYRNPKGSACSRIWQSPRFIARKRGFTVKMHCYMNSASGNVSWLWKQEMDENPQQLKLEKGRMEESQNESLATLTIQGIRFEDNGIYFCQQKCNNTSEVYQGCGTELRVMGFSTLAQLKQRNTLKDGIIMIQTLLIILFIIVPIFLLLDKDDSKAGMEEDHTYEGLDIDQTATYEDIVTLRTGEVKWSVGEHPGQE
UniProt P51636: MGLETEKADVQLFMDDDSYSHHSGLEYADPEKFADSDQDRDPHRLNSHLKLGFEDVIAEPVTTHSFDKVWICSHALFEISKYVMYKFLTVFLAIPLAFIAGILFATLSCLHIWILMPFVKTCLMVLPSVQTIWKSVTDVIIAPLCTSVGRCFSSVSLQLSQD
UniProt P30281: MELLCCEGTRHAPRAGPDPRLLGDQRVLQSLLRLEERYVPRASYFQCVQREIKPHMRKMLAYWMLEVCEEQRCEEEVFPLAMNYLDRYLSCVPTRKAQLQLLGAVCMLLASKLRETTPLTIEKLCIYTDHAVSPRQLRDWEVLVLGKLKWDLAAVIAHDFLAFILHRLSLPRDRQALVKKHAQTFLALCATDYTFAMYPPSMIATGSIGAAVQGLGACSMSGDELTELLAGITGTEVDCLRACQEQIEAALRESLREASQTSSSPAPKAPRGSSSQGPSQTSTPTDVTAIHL
UniProt A2RUB6: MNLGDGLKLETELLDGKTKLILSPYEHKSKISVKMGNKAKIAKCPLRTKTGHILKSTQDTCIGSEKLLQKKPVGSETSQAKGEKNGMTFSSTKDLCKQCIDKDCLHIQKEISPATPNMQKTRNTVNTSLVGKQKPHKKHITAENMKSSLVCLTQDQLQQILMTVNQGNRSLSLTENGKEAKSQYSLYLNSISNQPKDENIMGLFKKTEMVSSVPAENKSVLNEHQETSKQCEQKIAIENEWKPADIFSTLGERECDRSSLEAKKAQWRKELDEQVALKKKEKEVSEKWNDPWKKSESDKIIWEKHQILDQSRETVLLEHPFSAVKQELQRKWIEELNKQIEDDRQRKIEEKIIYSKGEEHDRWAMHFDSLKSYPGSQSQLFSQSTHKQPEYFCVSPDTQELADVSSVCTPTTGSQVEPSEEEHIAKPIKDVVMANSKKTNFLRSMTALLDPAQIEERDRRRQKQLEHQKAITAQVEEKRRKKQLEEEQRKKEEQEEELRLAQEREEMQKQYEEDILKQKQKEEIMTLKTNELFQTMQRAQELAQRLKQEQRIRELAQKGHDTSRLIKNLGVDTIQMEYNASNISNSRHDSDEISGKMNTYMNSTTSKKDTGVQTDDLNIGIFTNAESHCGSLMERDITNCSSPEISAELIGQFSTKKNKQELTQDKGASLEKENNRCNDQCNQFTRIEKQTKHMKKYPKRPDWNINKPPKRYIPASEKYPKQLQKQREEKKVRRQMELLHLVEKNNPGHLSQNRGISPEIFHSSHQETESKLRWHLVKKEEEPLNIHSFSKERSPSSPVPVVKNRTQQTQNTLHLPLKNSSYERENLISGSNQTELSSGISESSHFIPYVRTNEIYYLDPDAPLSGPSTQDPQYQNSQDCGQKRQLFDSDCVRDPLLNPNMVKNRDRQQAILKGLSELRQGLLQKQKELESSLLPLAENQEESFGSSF
UniProt O00421: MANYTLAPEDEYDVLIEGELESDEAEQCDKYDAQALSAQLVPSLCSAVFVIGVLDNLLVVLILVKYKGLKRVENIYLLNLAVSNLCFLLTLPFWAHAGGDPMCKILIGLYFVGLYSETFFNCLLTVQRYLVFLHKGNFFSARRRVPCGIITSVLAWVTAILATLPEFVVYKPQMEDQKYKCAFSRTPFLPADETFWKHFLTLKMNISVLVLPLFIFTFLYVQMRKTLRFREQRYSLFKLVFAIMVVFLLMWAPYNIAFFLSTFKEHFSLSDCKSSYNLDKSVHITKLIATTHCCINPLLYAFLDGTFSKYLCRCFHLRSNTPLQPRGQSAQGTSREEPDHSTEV
UniProt Q9UKL3: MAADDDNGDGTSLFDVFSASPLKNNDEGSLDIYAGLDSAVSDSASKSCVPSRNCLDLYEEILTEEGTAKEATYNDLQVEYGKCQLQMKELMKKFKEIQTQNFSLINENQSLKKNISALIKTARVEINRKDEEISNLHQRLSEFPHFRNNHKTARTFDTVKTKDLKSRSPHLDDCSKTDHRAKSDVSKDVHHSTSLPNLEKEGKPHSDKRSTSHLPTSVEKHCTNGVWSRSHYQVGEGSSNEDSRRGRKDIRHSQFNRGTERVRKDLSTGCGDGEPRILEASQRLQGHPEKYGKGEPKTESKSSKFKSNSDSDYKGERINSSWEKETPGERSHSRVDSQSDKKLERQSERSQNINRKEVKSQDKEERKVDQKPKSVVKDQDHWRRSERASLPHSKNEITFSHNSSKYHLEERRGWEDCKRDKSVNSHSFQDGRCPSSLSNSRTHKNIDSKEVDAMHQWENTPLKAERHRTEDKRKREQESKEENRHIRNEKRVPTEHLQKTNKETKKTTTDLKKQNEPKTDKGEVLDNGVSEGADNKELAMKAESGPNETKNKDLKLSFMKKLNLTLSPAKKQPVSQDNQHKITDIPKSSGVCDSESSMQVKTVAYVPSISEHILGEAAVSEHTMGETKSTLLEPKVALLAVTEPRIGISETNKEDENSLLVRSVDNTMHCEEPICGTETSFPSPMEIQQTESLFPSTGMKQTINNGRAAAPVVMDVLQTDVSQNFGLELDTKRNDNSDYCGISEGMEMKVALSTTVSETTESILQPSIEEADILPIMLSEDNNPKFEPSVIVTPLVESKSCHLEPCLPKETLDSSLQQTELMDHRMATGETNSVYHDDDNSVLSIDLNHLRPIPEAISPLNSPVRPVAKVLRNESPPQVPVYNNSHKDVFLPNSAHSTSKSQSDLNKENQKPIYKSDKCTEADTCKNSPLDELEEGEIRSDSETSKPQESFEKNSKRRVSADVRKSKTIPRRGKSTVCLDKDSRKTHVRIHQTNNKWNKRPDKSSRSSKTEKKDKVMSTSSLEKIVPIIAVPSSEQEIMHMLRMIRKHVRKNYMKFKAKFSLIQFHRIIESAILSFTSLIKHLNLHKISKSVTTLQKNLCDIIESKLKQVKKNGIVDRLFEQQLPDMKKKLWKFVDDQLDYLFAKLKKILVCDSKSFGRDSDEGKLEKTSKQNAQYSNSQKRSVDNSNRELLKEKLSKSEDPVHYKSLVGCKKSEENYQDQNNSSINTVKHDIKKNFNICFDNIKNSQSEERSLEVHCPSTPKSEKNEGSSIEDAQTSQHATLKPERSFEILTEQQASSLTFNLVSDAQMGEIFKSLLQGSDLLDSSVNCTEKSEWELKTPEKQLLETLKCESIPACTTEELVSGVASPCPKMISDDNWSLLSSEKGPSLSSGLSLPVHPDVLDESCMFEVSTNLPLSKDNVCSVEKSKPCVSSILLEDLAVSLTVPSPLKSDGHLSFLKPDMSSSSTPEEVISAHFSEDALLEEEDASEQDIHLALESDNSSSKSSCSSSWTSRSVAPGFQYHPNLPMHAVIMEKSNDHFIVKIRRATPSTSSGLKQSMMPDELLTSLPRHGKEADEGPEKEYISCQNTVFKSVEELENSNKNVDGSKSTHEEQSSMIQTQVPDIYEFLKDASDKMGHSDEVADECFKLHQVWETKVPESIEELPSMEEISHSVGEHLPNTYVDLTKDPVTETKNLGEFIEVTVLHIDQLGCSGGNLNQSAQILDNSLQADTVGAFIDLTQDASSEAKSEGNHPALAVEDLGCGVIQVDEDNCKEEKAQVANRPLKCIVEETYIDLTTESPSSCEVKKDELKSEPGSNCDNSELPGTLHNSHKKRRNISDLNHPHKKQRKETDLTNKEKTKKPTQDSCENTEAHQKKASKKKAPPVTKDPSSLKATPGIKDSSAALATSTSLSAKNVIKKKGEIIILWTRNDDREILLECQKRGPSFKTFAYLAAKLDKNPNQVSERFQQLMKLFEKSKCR
UniProt Q9P0B6: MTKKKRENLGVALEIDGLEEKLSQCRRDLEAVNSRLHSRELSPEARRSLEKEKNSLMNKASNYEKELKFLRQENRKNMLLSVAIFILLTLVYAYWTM
UniProt Q96MW1: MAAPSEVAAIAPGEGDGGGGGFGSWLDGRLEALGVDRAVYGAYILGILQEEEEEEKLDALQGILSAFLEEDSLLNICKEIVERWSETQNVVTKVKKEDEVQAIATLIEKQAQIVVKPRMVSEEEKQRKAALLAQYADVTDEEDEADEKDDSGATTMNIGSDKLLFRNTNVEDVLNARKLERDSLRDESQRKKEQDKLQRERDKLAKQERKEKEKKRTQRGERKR
UniProt P20138, whole entry, looked up: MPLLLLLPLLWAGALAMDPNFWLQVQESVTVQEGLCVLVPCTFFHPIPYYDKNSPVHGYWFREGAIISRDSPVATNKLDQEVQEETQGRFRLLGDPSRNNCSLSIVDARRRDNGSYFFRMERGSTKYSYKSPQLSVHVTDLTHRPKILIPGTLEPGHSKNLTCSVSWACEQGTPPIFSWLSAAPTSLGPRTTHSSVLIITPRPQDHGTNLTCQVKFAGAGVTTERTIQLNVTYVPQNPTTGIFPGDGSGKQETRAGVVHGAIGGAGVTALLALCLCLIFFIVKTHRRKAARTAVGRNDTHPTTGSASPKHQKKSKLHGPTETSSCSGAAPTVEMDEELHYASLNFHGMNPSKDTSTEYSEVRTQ

Experiments:
Assay in all cases: log2 fold change, soluble protein after heating vs DMSO (PISA); higher = thermal stabilisation; K562 lysate, 10 uM; active = over 0.2 and 3.5 SD of the protein, either way, in both replicates (recomputed)
[1] = compound: CN1CCN(CCOc2cc(OC3CCOCC3)c3c(Nc4c(Cl)ccc5c4OCO5)ncnc3c2)CC1 [saracatinib]
Summary of the method: (§1)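 Pellets of K562 cells were dounce-homogenised in PBS pH 7.4 with 1 mM MgCl2, and the crude extract was held at 1 mg/mL protein for a 30 min treatment with 10 μM compound. Aliquots were heated for 3 min over 48°C-58°C and pooled before NP-40 was added to 0.5% at 4°C. The supernatant from 21,000xg for 90 min was quantified by TMTpro 16plex LC-MS/MS with channel sums equalised. Values are reported from duplicates as log-two fold change in thermal stability relative to solvent controls.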

[2] = compound: CNc1nc(-c2ccc3c(N)n[nH]c3c2)cc(N2C[C@@H](C(=O)NC3CCCCC3)CC[C@H]2C)n1
Summary of the method: as §1

[3] = compound: COc1cc(Nc2ncc3c(n2)-c2ccc(Cl)cc2C(c2c(F)cccc2OC)=NC3)ccc1C(=O)O [alisertib]
Summary of the method: as §1

[4] = compound: COc1cc2ncnc(Nc3ccc(F)c(Cl)c3)c2cc1OCCCN1CCOCC1 [gefitinib]
Summary of the method: as §1

[5] = compound: CCn1cc(-c2ccnc3[nH]c(-c4cccc(CN(C)C)c4)cc23)c(-c2ccc(NC(=O)N(C)C)cc2)n1
Summary of the method: as §1

[6] = compound: CN1CCC(CNc2ccc3ncc(-c4cccc(OC(F)(F)F)c4)n3n2)CC1
Summary of the method: as §1

[7] = compound: CN1CC[C@H](c2c(O)cc(O)c3c(=O)cc(-c4ccccc4Cl)oc23)[C@H](O)C1 [alvocidib]
Summary of the method: as §1

[8] = compound: CCn1c(C(=O)N(C2CC2)C2CC2)cc2c3c(ncn3C)c(Nc3cc(C)n(C)n3)nc21
Summary of the method: as §1

[9] = compound: CN1CCc2c(c3ccccc3n2Cc2ccc(C(=O)NO)cc2)C1 [Tubastatin A]
Summary of the method: as §1

[10] = compound: CNC(=O)C1=CC=CC=C1NC2=NC(=NC=C2Cl)NC3=C(C=C(C=C3)N4CCOCC4)OC
Summary of the method: as §1

[11] = compound: CC[C@@H]1C(=O)N(C)c2cnc(Nc3ccc(C(=O)NC4CCN(C)CC4)cc3OC)nc2N1C1CCCC1
Summary of the method: as §1

[12] = compound: COC(=O)N[C@@H](C)CNc1nccc(-c2cn(C(C)C)nc2-c2cc(Cl)cc(NS(C)(=O)=O)c2F)n1 [encorafenib]
Summary of the method: as §1

[13] = compound: COC(=O)[C@H](CCSC)NC(=O)C1=C(C=C(C=C1)NC[C@H](CS)N)C2=CC=CC=C2
Summary of the method: as §1

[14] = compound: CN1CCN(c2nc(C3=C(c4c[nH]c5ccccc45)C(=O)NC3=O)c3ccccc3n2)CC1 [sotrastaurin]
Summary of the method: as §1

[15] = compound: CCCS(=O)(=O)Nc1ccc(F)c(C(=O)c2c[nH]c3ncc(Cl)cc23)c1F
Summary of the method: as §1

[16] = compound: CC[C@@H]1C(=O)N(C)c2cnc(Nc3ccc(C(=O)N[C@H]4CC[C@H](N5CCN(CC6CC6)CC5)CC4)cc3OC)nc2N1C(C)C [volasertib]
Summary of the method: as §1

[17] = compound: COc1cc2nc(-c3cc(F)ccc3O)nc(N[C@@H]3CNC[C@H]3C(C)(C)O)c2cc1OC
Summary of the method: as §1

[18] = compound: CCN(CCCOc1ccc2c(Nc3cc(CC(=O)Nc4cccc(F)c4)[nH]n3)ncnc2c1)CCOP(=O)(O)O [barasertib]
Summary of the method: as §1

Measured: log2 fold change

CCDC8 (UniProt Q9H0W5)
inactive: [1] -0.047 | [2] 0.019 | [3] 0.047 | [4] -0.065

CCDC138 (UniProt Q96M89)
inactive: [3] 0.054 | [4] 0.066

CD40 (UniProt P25942)
inactive: [5] -0.389 | [6] -0.196 | [7] -0.121

CD276 (UniProt Q5ZPR3)
inactive: [8] 0.06 | [5] 0.12 | [6] 0.033 | [7] 0.25 | [9] -0.075 | [10] 0.076

CD44 (UniProt P16070)
inactive: [11] -0.03 | [5] 0.117 | [6] 0.039 | [7] -0.074 | [10] -0.108 | [12] 0.049 | [13] -0.055 | [3] -0.126 | [4] 0.062

CCDC71L (UniProt Q8N9Z2)
inactive: [5] -0.132 | [6] 0.054 | [1] 0.167 | [7] -0.024 | [2] -0.172

Fetched one by one from the entries so far (two):
CD40 (UniProt P25942)
inactive: [5] -0.389 | [6] -0.196 | [7] -0.121

CCDC71L (UniProt Q8N9Z2)
inactive: [5] -0.132 | [6] 0.054 | [1] 0.167 | [7] -0.024 | [2] -0.172

Further results

CCDC18 (UniProt Q5T9S5)
inactive: [11] -0.167 | [8] -0.128 | [5] -0.235 | [6] 0.087 | [1] 0.005 | [14] -0.127 | [7] -0.08 | [9] 0.073 | [2] 0.137 | [12] -0.037 | [13] 0.016 | [3] -0.092 | [4] -0.111

CD69 (UniProt Q07108)
inactive: [14] 0.221

CASP10 isoform 2 (UniProt Q92851)
inactive: [11] -0.166 | [8] 0.187 | [1] 0.004 | [9] -0.204 | [2] -0.158 | [12] 0.002 | [13] 0.084

CD79B isoform 3 (UniProt P40259)
inactive: [1] -1.38 | [2] 0.221

CAV2 (UniProt P51636)
inactive: [15] -0.094 | [16] -0.033 | [8] 0.117 | [5] -0.157 | [6] 0.05 | [1] 0.07 | [14] -0.11 | [7] -0.029 | [9] -0.328 | [10] -0.093 | [2] -0.406 | [17] 0.012

CD68 (UniProt P34810)
inactive: [11] -0.282 | [5] -0.025 | [6] -0.011 | [14] -0.157 | [7] -0.097 | [10] 0.186 | [12] 0.515 | [13] -0.504

CCDC88A isoform 2 (UniProt Q3V6T2)
inactive: [5] -0.048 | [6] 0.039 | [7] -0.136 | [3] -0.033 | [4] 0.076

CD109 (UniProt Q6YHK3)
inactive: [5] 0.205 | [6] -0.384 | [7] -0.077

CD164 (UniProt Q04900)
inactive: [14] 0.112 | [10] 0.052

CASTOR1 (UniProt Q8WTX7)
inactive: [14] 0.081

CBX3 (UniProt B8ZZ43)
inactive: [8] 0.013 | [5] -0.08 | [6] 0.116 | [14] 0.06 | [7] -0.002 | [9] -0.068 | [3] 0.107 | [4] 0.201

CCND3 (UniProt P30281)
inactive: [18] 0.014 | [11] -0.056 | [8] -0.112 | [5] -0.116 | [6] 0.075 | [1] 0.086 | [14] 0.016 | [7] 0.144 | [9] -0.001 | [10] 0.024 | [2] 0.037 | [12] 0.081 | [13] -0.128 | [3] 0.073 | [4] 0.201

CCDC66 (UniProt A2RUB6)
inactive: [11] -0.152 | [8] -0.015 | [9] -0.082 | [12] 0.299 | [13] 0.157

CCND1 (UniProt P24385)
inactive: [5] -0.345 | [6] 0.09 | [14] -0.072 | [7] 0.036

CCRL2 isoform 2 (UniProt O00421)
inactive: [18] 0.147 | [8] -0.124 | [9] 0.107 | [10] -0.1 | [3] -0.221 | [4] 0.053

CCDC126 (UniProt Q96EE4)
inactive: [14] 0.135 | [10] 0.047

CBX2 (UniProt Q14781)
inactive: [15] 0.041 | [16] 0.017 | [3] -0.068 | [17] 0.142 | [4] -0.035

CCNL1 (UniProt Q9UK58)
inactive: [15] 0.078 | [11] 0 | [16] -0.017 | [5] -0.21 | [6] 0.021 | [14] -0.035 | [7] 0.133 | [12] 0.087 | [13] 0.075 | [3] 0.041 | [17] -0.086 | [4] -0.096

CASP8AP2 (UniProt Q9UKL3)
inactive: [18] 0.034 | [11] 0.034 | [8] -0.107 | [5] -0.086 | [6] -0.012 | [14] 0.078 | [7] 0.021 | [9] 0.137 | [12] -0.001 | [13] 0.22

CCDC167 (UniProt Q9P0B6)
inactive: [18] -0.316 | [14] -0.086 | [10] 0.064 | [3] -0.1 | [4] -0.011

CCT8 (UniProt H7C4C8)
inactive: [8] -0.341 | [14] 0.068 | [9] 0.171 | [3] -0.09 | [4] -0.248

CCDC43 isoform 2 (UniProt Q96MW1)
inactive: [10] -0.385

CCAR2 (UniProt G3V119)
inactive: [15] 0.087 | [16] -0.074 | [17] -0.032

CASC1 (UniProt Q6TDU7)
inactive: [18] 1.04 | [8] -0.217 | [5] 0.034 | [6] 0.006 | [7] -0.023 | [9] 0.317

CD46 (UniProt P15529)
inactive: [14] 0.161 | [10] 0.057

CD33 (UniProt P20138)
inactive: [15] -0.116 | [16] -0.08 | [5] 0.053 | [6] -0.04 | [1] 0.038 | [14] 0.17 | [7] -0.048 | [2] -0.216 | [3] -0.089 | [17] -0.004 | [4] 0.17
